Some entries share one result that the patent states for a list of compounds. At least one structure is not confirmed: it was looked up by name or label, or the drawing left a doubt.
System: S. pseudintermedius recombinant SrtA
Test: in vitro FRET-based functional assay of recombinant SrtA
Assay type: biochemical, Staphylococcus pseudintermedius
Conditions: compared to buffer controls, averages from three independent experiments
Protocol: Compounds predicted to bind to the active site were identified. Initially, from the 200 highest ranked compounds, twenty were selected. […] The assay to determine the functional activity of recombinant SrtA and its inhibition was performed in 96-well black microtiter plates with clear bottom (Corning, Fisher Scientific, Hampton, N.H.) in a final reaction volume of 200 μl. Fluorescent-quenched bacterial sortase substrate III, Abz/DNP (Abz-LPETG-K(Dnp)-NH2 (GenScript Inc., Piscataway, N.J.) dissolved in isopropanol was used for Km determination. Varying concentrations of the substrate (2.5 μM-200 μM) were incubated at 25° C. with 1 μM of SrtA diluted in assay buffer (50 mM Tris-HCl, 150 mM NaCl, 5 mM CaCl2, and 0.1% Triton X-100, pH 7.5). The increase in fluorescence was measured in a kinetic assay for 20 min at 2 min intervals using a Synergy HTX multimode reader (BioTek, Winooski, Vt.) at wavelengths 320 excitation/420 emission. The initial velocity V0 was determined from the linear portion of the curve and the Km was determined using the Michaelis-Menten equation where V=Vmax[S]/([S]+Km). To measure the effect of inhibitors recombinant SrtA was pre-incubated with varying amounts of the inhibitor at […] and subjected to the same FRET assay.

| Compound | inhibition of SrtA | inhibition of SrtA (listed as STL223422) |
| --- | --- | --- |
| CC(C)(c1cc(Cl)c(O)c(CN2CCOCC2)c1)c1cc(Cl)c(O)c(CN2CCOCC2)c1 [Compound 64876] | 40-60% | – |
| COc1ccc(N2CCN(S(=O)(=O)Cc3ccc(F)cc3)CC2)cc1 [STL223442] | – | 10-20% |

Reference: patent US10676538B2, “Inhibitors of Staphylococcus pseudintermedius sortase” (priority 2017, dated 2020)
